Values from PubChem BioAssay AID1224828 (NIAID, 2016)

Aim: 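Knock-downs that increase or decrease LPS-induced p65 nuclear translocation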 (primary screen)
Cell system: mouse RAW264.7 G9 macrophage reporter cells (GFP-p65, Tnf promoter-mCherry)
Reagent: siRNA pool against mouse genes, 100 nM
Duration: 2 days siRNA transfection, then 40 min LPS before fixation
Conditions: LPS (Salmonella minnesota R595) at 10 ng/ml
Read-out: 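Imaged p65 nuclear translocation ratio, normalised to the plate median, converted to robust z-scores and averaged across two replicates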
Direction: p65 translocation robust z-score: higher = more nuclear NF-kappaB p65 after LPS than the plate median; nuclear/cytoplasmic p65 ratio: higher = more nuclear NF-kappaB p65
Rule for the call: 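Active if robust z is above 3.3 (negative regulators) or below -1.56, the Tlr4 control median (positive regulators); activity score 50 or more; control wells not called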
Meaning of the calls: active = hit (p65 shift raised or lowered); inactive = no clear change
Shown is an unselected part of about 17,000 deposited reagents. 762 of them (4.5%) were called active. 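Active calls include both raised and lowered p65 entry, mostly lowered; wells with fewer than 50 cells lack a z-score.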 The raw values are shown without normalisation. Entries without a mark were called inactive.

Target gene	p65 translocation robust z-score	nuclear/cytoplasmic p65 ratio, rep 1	nuclear/cytoplasmic p65 ratio, rep 2	low cell count flag
G6pc2	-0.4	1.4	1.3	enough cells to score
B3galt4	0.41	1.59	1.64	enough cells to score
Aox4	-0.61	1.49	1.55	enough cells to score
Tgfb1	0.08	1.53	1.53	enough cells to score
Dpf3		1.39	1.2	fewer than 50 cells per well; well left out of scoring
Vmn1r64		1.36	1.21	fewer than 50 cells per well; well left out of scoring
Pank1	-1.5	1.7	1.19	enough cells to score
Uimc1	0.48	1.59	1.58	enough cells to score
Dusp16	0.4	1.52	1.41	enough cells to score
Igfbp3	-0.87	1.38	1.28	enough cells to score
Catsperb	-0.87	1.26	1.11	enough cells to score
Lrrc18		1.28	1.42	fewer than 50 cells per well; well left out of scoring
Pknox1	-0.83	1.37	1.31	enough cells to score
4931422A03Rik		1.25	1.45	fewer than 50 cells per well; well left out of scoring
Gpx7	-0.37	1.68	1.4	enough cells to score
Man2c1	0.84	1.63	1.38	enough cells to score
Fcamr	1.4	1.03	1.67	enough cells to score
Cox16		1.5	1.4	fewer than 50 cells per well; well left out of scoring
Rcc2	7.23 (active)	1.24	2.43	enough cells to score
Ctsm	-0.8	1.41	1.71	enough cells to score
Npy6r	0.92	1.87	1.66	enough cells to score
Eif4h	0.26	1.5	1.69	enough cells to score
Pcdh1	-0.23	1.57	1.36	enough cells to score
Smyd4		1.37	1.37	fewer than 50 cells per well; well left out of scoring
Lrrn1	-2.1 (active)	1.47	1.17	enough cells to score
Rspry1	0.57	1.69	1.71	enough cells to score
Aspa	1.05	1.83	1.71	enough cells to score
Afg3l1	0.07	1.54	1.77	enough cells to score
Fanci	0.69	1.77	1.86	enough cells to score
Cyfip1	-0.61	1.43	1.75	enough cells to score
Casp4	-1.05	1.39	1.52	enough cells to score
Kyat1	-1.15	1.44	1.58	enough cells to score
Card10		1.34	1.22	fewer than 50 cells per well; well left out of scoring
Lrrcc1	-0.09	1.45	1.34	enough cells to score
Pcgf1	0.41	1.49	1.48	enough cells to score
Or4f59	0.79	1.63	1.61	enough cells to score
Ntn4	0.9	1.59	1.51	enough cells to score
Ndrg2	0.83	1.51	1.48	enough cells to score
Rln3		1.43	1.07	fewer than 50 cells per well; well left out of scoring
3300002I08Rik		1.23	1.29	fewer than 50 cells per well; well left out of scoring
Qrfpr	1.63	1.74	1.82	enough cells to score
Cables2		1.19	1.81	fewer than 50 cells per well; well left out of scoring
Phf19		1.35	1.43	fewer than 50 cells per well; well left out of scoring
Eny2	-1.93 (active)	1.1	1.09	enough cells to score
9530091C08Rik	0.07	1.49	1.5	enough cells to score
Sp8	1.07	1.54	1.37	enough cells to score
Eno4	2.77	1.52	2.04	enough cells to score
H2-DMa	-0.37	1.4	1.32	enough cells to score
Slc16a9	-0.3	1.37	1.21	enough cells to score
Pik3r1	1.65	1.93	1.6	enough cells to score
Zfy2		1.84	1.06	fewer than 50 cells per well; well left out of scoring
Fgf8	-0.4	1.37	1.33	enough cells to score
Slc12a8	0.98	1.54	1.36	enough cells to score
Ccl6		1.31	1.44	fewer than 50 cells per well; well left out of scoring
Fcmr	-0.68	1.53	1.49	enough cells to score
Ganab	-0.64	1.57	1.31	enough cells to score
Fgf16	-0.51	1.29	1.38	enough cells to score
Igf2bp1	-0.33	1.31	1.41	enough cells to score
Dph3	0.68	1.54	1.5	enough cells to score

Limited to “low cell count flag” (9 entries from above):
Vmn1r64: fewer than 50 cells per well; well left out of scoring
Pank1: enough cells to score
Uimc1: enough cells to score
Dusp16: enough cells to score
Igfbp3: enough cells to score
Catsperb: enough cells to score
Lrrc18: fewer than 50 cells per well; well left out of scoring
Pknox1: enough cells to score
4931422A03Rik: fewer than 50 cells per well; well left out of scoring
